From PMC9270975
No constants are given. Whether binding was seen depends on the method and setting. In cells and extracts the contact can be indirect. Some binding calls cover weakened binding; strength is not graded here.

Target: T1, Mdm2 (zebrafish (endogenous in zebrafish embryos)) (UniProt O42354)
T1 sequence: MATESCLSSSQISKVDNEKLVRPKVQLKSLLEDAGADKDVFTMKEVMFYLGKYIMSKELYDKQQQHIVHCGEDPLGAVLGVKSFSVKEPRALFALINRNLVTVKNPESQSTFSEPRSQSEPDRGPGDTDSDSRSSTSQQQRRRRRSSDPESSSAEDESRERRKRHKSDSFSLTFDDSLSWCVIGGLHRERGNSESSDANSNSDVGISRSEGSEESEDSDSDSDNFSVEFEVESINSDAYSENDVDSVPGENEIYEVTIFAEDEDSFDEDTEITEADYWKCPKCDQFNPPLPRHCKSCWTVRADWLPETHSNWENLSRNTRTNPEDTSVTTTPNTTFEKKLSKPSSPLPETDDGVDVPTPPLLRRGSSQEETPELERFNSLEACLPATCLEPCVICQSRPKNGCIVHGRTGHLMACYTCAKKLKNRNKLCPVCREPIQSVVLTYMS
Experiment: co-IP; lysates of 28 hpf control and ncl-/- zebrafish embryos (n=25 per replicate), antibody or IgG pre-conjugated to magnetic beads, immunoblot for Mdm2 and p53; results say IP for Mdm2, methods name the p53 antibody

B1: p53 protein (protein, UniProt P79734 1-373)
chain: MAQNDSQEFAELWEKNLIIQPPGGGSCWDIINDEEYLPGSFDPNFFENVLEEQPQPSTLPPTSTVPETSDYPGDHGFRLRFPQSGTAKSVTCTYSPDLNKLFCQLAKTCPVQMVVDVAPPQGSVVRATAIYKKSEHVAEVVRRCPHHERTPDGDNLAPAGHLIRVEGNQRANYREDNITLRHSVFVPYEAPQLGAEWTTVLLNYMCNSSCMGGMNRRPILTIITLETQEGQLLGRRSFEVRVCACPGRDRKTEESNFKKDQETKTMAKTTTGTKRSLVKESSSATLRPEGSKKAKGSSSDEEIFTLQVRGRERYEILKKLNDSLELSDVVPASDAEKYRQKFMTKNKKENRESSEPKQGKKLMVKDEGRSDSD
  binding: binds
